The list shows a part of the results, in another mix than the full data. Calls are pooled over several reports, among them a noisy single-well screen. The list shows a part of the results.
How the values were obtained:
Conditions in all cases: stereoisomer not certain
OR2Y1 = test system: T1, OR2Y1
T1 sequence (whole entry): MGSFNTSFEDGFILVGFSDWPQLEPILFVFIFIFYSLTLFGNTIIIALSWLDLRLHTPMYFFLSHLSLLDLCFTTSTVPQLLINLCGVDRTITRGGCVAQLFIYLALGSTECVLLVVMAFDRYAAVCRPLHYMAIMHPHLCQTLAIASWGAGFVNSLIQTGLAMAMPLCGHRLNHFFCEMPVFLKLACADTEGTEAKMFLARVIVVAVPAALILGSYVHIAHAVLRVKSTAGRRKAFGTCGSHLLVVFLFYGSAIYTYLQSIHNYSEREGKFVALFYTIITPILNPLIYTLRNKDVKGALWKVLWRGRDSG
Method in brief: (§1)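 Values were gathered from published papers (main text and supplementary material), with extra details requested from the original authors when needed, and checked for typos and inconsistencies. Each receptor–molecule pair is called responsive (active) if the original authors judged the measured signal statistically different from baseline, and non-responsive (inactive) otherwise. Assay methods varied by source, often transient mammalian cell-line luciferase assays. Recorded details include cell line, G-protein, co-transfected protein and tags.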

Chains of the proteins cited; added tags and fusions are not shown. A change or cut given only in a name is not applied to a line headed by its entry. A line that says so, or that is headed by a name, gives the form on record, which may keep a tag or linker.
UniProt Q8NH37: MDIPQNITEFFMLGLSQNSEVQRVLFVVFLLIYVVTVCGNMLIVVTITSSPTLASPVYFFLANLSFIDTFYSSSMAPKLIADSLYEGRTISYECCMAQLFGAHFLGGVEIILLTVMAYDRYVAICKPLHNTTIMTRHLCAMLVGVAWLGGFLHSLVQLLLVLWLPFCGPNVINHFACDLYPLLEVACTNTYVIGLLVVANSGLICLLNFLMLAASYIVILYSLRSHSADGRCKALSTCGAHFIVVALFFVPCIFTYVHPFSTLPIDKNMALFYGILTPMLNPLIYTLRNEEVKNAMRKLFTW
UniProt Q8NH72: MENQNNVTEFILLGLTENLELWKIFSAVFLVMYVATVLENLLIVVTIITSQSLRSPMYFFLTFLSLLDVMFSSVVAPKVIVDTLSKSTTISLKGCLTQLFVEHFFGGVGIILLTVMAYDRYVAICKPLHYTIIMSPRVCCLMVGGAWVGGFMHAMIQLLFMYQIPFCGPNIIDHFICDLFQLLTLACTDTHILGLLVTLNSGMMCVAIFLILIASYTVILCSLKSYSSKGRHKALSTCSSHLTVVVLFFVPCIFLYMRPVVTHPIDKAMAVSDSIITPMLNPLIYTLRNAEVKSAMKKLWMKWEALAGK
UniProt Q8NGI6: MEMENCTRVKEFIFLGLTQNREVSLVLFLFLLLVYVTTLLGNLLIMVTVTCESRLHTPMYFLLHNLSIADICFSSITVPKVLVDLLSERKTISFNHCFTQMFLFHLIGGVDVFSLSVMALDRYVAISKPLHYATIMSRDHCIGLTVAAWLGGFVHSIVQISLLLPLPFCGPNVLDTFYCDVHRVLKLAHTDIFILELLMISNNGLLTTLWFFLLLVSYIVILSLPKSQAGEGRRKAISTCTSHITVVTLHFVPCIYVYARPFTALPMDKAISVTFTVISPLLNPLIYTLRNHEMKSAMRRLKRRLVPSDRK
OR4CF, as listed by the source: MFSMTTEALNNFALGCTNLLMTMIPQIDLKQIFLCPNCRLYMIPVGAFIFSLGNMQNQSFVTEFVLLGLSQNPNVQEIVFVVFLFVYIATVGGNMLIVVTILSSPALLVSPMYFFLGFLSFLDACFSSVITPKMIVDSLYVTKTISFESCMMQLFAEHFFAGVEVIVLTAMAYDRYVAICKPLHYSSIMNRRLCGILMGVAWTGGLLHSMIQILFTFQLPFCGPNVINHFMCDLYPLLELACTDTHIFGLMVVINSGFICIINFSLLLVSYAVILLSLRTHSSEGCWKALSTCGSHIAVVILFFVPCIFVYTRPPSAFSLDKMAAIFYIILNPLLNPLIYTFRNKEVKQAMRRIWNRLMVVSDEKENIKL
OR4CC, as listed by the source: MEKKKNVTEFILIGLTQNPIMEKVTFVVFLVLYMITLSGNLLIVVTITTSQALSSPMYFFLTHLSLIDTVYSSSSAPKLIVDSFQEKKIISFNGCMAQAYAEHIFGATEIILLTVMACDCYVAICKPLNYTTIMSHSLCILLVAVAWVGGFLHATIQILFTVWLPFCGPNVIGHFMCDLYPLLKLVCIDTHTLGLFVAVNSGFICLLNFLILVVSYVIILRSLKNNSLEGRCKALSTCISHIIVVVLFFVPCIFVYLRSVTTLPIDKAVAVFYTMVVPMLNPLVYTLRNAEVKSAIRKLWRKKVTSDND
OR4C5, as listed by the source: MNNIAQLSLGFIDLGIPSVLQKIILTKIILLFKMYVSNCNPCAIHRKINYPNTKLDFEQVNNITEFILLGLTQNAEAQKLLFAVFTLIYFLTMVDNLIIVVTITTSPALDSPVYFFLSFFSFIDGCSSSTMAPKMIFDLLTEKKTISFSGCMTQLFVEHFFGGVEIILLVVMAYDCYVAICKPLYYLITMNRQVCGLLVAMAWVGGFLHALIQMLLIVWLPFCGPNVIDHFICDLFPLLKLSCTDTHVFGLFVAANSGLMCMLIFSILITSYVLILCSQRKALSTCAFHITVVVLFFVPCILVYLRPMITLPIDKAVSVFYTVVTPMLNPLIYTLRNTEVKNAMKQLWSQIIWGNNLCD
OR4C3, as listed by the source: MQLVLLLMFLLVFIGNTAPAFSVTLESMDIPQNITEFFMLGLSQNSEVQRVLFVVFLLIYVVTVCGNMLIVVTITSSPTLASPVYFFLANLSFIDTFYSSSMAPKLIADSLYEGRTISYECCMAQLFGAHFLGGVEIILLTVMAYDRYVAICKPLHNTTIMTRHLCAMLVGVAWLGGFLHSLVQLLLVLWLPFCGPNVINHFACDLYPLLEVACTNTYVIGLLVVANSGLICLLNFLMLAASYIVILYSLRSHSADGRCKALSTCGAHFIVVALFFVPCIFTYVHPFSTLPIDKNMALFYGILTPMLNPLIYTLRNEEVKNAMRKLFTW

OR2Z1 (Homo sapiens) = target: T2, OR2Z1 (Homo sapiens) (UniProt Q8NG97)
T2 sequence (whole entry): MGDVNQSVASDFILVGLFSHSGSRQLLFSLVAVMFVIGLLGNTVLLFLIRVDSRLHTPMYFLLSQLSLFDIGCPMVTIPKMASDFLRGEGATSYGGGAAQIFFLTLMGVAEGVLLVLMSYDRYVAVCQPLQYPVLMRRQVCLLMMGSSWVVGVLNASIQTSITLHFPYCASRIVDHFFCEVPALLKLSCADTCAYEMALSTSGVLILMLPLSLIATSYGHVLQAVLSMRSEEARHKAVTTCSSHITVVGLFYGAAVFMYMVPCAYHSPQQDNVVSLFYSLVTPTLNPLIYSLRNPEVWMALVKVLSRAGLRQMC
Method in brief: as §1

OR3A1 (Homo sapiens) = target: T3, OR3A1 (Homo sapiens) (UniProt P47881)
T3 sequence (whole entry): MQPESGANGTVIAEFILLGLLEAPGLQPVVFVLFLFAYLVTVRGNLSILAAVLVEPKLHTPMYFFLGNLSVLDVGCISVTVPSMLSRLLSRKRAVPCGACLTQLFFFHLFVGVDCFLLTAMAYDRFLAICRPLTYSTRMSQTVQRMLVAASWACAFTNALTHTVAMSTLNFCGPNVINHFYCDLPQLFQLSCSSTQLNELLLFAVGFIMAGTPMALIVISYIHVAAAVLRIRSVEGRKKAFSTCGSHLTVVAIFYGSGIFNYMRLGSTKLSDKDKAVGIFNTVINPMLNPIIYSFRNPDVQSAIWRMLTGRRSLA
Method in brief: as §1

OR3A2 (Homo sapiens) = target: T4, OR3A2 (Homo sapiens) (UniProt P47893)
T4 sequence (whole entry): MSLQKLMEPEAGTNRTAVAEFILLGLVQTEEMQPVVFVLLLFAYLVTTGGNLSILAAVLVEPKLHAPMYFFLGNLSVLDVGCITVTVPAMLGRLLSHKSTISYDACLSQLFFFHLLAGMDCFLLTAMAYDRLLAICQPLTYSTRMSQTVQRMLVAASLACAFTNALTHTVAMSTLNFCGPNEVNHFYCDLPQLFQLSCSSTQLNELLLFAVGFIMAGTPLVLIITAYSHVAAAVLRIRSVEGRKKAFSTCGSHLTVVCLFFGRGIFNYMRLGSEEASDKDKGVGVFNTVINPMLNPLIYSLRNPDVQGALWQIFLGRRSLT
Method in brief: as §1

OR3A3 = test system: T5, OR3A3
T5 sequence (whole entry): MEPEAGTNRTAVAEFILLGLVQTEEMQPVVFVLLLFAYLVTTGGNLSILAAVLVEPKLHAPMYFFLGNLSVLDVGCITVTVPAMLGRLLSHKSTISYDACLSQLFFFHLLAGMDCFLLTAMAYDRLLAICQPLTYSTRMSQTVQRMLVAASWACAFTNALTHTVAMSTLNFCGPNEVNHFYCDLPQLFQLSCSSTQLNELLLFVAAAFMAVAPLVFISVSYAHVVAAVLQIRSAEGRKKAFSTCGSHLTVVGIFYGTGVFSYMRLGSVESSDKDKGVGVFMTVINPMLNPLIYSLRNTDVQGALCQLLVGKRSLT
Method in brief: as §1

OR3A4 = test system: T6, OR3A4
T6 sequence (whole entry): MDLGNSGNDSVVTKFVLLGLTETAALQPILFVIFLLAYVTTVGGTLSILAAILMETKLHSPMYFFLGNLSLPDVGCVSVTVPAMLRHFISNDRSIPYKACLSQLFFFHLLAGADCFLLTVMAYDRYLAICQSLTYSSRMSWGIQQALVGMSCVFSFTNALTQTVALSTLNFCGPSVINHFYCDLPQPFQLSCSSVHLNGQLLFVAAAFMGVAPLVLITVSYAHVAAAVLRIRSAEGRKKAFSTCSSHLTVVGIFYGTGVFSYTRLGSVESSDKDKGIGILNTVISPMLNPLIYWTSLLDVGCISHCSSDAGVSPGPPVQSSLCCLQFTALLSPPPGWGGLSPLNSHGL
Method in brief: as §1

OR4A16 (Homo sapiens) = target: T7, OR4A16 (Homo sapiens) (UniProt Q8NH70)
T7 sequence (whole entry): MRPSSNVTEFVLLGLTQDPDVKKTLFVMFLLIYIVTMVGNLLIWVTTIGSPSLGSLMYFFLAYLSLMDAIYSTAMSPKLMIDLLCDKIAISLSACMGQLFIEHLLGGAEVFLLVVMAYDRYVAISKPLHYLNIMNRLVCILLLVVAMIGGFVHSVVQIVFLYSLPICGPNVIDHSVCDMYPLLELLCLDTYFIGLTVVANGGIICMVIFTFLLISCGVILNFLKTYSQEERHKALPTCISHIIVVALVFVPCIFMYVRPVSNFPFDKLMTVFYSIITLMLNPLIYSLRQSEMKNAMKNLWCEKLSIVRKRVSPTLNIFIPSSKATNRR
Method in brief: as §1

OR4A4P (Homo sapiens) = target: T8, OR4A4P (Homo sapiens) (UniProt Q8NGN8)
T8 sequence (whole entry): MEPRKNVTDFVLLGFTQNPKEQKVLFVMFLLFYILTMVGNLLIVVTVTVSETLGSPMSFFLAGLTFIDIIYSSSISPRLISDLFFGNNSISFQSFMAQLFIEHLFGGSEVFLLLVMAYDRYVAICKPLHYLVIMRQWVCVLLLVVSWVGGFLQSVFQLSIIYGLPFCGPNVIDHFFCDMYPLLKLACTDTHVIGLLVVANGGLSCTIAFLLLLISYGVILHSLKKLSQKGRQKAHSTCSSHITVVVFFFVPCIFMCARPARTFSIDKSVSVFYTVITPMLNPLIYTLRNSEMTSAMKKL
Method in brief: as §1

OR4A5 (Homo sapiens) = target: T9, OR4A5 (Homo sapiens) (UniProt Q8NH83)
T9 sequence (whole entry): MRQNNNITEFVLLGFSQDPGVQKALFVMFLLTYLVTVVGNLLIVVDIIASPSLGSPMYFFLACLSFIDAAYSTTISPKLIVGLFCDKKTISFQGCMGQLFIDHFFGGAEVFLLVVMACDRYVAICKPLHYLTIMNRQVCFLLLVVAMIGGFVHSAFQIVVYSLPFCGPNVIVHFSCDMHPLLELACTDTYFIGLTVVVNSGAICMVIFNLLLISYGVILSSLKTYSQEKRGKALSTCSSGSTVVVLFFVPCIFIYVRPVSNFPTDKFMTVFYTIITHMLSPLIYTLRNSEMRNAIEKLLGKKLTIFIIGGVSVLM
Method in brief: as §1

OR4A5 = test system: T10, OR4A5
T10 sequence (whole entry): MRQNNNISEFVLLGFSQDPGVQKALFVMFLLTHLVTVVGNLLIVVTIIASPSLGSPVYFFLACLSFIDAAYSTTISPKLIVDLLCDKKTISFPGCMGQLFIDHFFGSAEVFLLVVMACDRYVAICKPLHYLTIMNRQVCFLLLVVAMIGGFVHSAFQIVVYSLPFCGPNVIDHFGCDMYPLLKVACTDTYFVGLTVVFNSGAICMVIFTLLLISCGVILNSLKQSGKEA
Method in brief: as §1

OR4B1 (Homo sapiens) = target: T11, OR4B1 (Homo sapiens) (UniProt Q8NGF8)
T11 sequence (whole entry): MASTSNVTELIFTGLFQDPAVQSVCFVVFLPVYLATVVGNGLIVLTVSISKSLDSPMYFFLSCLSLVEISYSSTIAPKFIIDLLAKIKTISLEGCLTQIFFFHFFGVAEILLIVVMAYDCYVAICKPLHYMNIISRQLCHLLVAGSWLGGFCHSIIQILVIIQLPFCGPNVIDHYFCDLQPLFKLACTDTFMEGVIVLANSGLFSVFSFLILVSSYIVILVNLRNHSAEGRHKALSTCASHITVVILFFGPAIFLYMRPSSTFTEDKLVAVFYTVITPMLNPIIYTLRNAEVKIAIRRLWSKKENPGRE
Method in brief: as §1

OR4C11 (Homo sapiens) = target: T12, OR4C11 (Homo sapiens) (UniProt Q6IEV9)
T12 sequence (whole entry): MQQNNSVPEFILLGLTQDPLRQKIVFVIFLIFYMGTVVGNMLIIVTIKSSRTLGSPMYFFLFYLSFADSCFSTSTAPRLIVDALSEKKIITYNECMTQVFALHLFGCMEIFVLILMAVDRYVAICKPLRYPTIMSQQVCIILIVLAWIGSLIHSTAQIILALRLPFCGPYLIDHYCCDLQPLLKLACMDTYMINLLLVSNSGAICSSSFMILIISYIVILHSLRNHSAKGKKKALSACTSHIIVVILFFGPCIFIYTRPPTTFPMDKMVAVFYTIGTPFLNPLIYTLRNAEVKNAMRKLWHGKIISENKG
Method in brief: as §1

OR4C3 (Homo sapiens) = OR4C3 (Homo sapiens) (UniProt Q8NH37)
Method in brief: as §1

OR4C3 = test system: OR4C3
Method in brief: as §1

OR4C5 = test system: OR4C5
Method in brief: as §1

OR4C6 (Homo sapiens) = OR4C6 (Homo sapiens) (UniProt Q8NH72)
Method in brief: as §1

OR4CC = test system: OR4CC
Method in brief: as §1

OR4CF = test system: OR4CF
Method in brief: as §1

OR4CG = test system: T13, OR4CG
T13 sequence (whole entry): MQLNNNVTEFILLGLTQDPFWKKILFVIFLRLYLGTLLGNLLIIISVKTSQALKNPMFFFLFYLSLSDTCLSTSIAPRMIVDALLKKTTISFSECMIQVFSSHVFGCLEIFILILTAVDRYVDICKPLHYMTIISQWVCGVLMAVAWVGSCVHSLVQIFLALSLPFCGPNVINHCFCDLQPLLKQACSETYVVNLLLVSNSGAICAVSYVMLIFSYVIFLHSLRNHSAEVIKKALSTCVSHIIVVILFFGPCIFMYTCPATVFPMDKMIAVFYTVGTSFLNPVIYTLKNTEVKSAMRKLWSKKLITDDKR
Method in brief: as §1

OR4D10 (Homo sapiens) = OR4D10 (Homo sapiens) (UniProt Q8NGI6)
Method in brief: as §1

Measured: odorant receptor agonist call

CCC(C)=O
inactive: OR2Y1 | OR2Z1 (Homo sapiens) | OR3A1 (Homo sapiens) | OR3A2 (Homo sapiens) | OR3A3 | OR3A4 | OR4A16 (Homo sapiens) | OR4A4P (Homo sapiens) | OR4A5 (Homo sapiens) | OR4A5 | OR4B1 (Homo sapiens) | OR4C11 (Homo sapiens) | OR4C3 (Homo sapiens) | OR4C3 | OR4C5 | OR4C6 (Homo sapiens) | OR4CC | OR4CF | OR4CG | OR4D10 (Homo sapiens)

CCCCOC(C)=O
inactive: OR2Y1 | OR2Z1 (Homo sapiens) | OR3A1 (Homo sapiens) | OR3A2 (Homo sapiens) | OR3A3 | OR3A4 | OR4A16 (Homo sapiens) | OR4A4P (Homo sapiens) | OR4A5 (Homo sapiens) | OR4A5 | OR4B1 (Homo sapiens) | OR4C11 (Homo sapiens) | OR4C3 (Homo sapiens) | OR4C3 | OR4C5 | OR4C6 (Homo sapiens) | OR4CC | OR4CF | OR4CG | OR4D10 (Homo sapiens)

CS
inactive: OR2Y1 | OR2Z1 (Homo sapiens) | OR3A1 (Homo sapiens) | OR3A2 (Homo sapiens) | OR3A3 | OR3A4 | OR4A16 (Homo sapiens) | OR4A4P (Homo sapiens) | OR4A5 (Homo sapiens) | OR4A5 | OR4B1 (Homo sapiens) | OR4C11 (Homo sapiens) | OR4C3 (Homo sapiens) | OR4C3 | OR4C5 | OR4C6 (Homo sapiens) | OR4CC | OR4CF | OR4CG | OR4D10 (Homo sapiens)
